Laboratory results: the supplement of paper PMC12067093, “Discovery and optimisation of a covalent ligand for TRIM25 and its application to targeted protein ubiquitination” (Chemical Science, 2025)
The other results are listed elsewhere or left out.

Chains of the proteins cited; added tags and fusions are not shown. Lines headed by an entry give the natural chain unless they say otherwise; changes in a name come on top.
UniProt O95714: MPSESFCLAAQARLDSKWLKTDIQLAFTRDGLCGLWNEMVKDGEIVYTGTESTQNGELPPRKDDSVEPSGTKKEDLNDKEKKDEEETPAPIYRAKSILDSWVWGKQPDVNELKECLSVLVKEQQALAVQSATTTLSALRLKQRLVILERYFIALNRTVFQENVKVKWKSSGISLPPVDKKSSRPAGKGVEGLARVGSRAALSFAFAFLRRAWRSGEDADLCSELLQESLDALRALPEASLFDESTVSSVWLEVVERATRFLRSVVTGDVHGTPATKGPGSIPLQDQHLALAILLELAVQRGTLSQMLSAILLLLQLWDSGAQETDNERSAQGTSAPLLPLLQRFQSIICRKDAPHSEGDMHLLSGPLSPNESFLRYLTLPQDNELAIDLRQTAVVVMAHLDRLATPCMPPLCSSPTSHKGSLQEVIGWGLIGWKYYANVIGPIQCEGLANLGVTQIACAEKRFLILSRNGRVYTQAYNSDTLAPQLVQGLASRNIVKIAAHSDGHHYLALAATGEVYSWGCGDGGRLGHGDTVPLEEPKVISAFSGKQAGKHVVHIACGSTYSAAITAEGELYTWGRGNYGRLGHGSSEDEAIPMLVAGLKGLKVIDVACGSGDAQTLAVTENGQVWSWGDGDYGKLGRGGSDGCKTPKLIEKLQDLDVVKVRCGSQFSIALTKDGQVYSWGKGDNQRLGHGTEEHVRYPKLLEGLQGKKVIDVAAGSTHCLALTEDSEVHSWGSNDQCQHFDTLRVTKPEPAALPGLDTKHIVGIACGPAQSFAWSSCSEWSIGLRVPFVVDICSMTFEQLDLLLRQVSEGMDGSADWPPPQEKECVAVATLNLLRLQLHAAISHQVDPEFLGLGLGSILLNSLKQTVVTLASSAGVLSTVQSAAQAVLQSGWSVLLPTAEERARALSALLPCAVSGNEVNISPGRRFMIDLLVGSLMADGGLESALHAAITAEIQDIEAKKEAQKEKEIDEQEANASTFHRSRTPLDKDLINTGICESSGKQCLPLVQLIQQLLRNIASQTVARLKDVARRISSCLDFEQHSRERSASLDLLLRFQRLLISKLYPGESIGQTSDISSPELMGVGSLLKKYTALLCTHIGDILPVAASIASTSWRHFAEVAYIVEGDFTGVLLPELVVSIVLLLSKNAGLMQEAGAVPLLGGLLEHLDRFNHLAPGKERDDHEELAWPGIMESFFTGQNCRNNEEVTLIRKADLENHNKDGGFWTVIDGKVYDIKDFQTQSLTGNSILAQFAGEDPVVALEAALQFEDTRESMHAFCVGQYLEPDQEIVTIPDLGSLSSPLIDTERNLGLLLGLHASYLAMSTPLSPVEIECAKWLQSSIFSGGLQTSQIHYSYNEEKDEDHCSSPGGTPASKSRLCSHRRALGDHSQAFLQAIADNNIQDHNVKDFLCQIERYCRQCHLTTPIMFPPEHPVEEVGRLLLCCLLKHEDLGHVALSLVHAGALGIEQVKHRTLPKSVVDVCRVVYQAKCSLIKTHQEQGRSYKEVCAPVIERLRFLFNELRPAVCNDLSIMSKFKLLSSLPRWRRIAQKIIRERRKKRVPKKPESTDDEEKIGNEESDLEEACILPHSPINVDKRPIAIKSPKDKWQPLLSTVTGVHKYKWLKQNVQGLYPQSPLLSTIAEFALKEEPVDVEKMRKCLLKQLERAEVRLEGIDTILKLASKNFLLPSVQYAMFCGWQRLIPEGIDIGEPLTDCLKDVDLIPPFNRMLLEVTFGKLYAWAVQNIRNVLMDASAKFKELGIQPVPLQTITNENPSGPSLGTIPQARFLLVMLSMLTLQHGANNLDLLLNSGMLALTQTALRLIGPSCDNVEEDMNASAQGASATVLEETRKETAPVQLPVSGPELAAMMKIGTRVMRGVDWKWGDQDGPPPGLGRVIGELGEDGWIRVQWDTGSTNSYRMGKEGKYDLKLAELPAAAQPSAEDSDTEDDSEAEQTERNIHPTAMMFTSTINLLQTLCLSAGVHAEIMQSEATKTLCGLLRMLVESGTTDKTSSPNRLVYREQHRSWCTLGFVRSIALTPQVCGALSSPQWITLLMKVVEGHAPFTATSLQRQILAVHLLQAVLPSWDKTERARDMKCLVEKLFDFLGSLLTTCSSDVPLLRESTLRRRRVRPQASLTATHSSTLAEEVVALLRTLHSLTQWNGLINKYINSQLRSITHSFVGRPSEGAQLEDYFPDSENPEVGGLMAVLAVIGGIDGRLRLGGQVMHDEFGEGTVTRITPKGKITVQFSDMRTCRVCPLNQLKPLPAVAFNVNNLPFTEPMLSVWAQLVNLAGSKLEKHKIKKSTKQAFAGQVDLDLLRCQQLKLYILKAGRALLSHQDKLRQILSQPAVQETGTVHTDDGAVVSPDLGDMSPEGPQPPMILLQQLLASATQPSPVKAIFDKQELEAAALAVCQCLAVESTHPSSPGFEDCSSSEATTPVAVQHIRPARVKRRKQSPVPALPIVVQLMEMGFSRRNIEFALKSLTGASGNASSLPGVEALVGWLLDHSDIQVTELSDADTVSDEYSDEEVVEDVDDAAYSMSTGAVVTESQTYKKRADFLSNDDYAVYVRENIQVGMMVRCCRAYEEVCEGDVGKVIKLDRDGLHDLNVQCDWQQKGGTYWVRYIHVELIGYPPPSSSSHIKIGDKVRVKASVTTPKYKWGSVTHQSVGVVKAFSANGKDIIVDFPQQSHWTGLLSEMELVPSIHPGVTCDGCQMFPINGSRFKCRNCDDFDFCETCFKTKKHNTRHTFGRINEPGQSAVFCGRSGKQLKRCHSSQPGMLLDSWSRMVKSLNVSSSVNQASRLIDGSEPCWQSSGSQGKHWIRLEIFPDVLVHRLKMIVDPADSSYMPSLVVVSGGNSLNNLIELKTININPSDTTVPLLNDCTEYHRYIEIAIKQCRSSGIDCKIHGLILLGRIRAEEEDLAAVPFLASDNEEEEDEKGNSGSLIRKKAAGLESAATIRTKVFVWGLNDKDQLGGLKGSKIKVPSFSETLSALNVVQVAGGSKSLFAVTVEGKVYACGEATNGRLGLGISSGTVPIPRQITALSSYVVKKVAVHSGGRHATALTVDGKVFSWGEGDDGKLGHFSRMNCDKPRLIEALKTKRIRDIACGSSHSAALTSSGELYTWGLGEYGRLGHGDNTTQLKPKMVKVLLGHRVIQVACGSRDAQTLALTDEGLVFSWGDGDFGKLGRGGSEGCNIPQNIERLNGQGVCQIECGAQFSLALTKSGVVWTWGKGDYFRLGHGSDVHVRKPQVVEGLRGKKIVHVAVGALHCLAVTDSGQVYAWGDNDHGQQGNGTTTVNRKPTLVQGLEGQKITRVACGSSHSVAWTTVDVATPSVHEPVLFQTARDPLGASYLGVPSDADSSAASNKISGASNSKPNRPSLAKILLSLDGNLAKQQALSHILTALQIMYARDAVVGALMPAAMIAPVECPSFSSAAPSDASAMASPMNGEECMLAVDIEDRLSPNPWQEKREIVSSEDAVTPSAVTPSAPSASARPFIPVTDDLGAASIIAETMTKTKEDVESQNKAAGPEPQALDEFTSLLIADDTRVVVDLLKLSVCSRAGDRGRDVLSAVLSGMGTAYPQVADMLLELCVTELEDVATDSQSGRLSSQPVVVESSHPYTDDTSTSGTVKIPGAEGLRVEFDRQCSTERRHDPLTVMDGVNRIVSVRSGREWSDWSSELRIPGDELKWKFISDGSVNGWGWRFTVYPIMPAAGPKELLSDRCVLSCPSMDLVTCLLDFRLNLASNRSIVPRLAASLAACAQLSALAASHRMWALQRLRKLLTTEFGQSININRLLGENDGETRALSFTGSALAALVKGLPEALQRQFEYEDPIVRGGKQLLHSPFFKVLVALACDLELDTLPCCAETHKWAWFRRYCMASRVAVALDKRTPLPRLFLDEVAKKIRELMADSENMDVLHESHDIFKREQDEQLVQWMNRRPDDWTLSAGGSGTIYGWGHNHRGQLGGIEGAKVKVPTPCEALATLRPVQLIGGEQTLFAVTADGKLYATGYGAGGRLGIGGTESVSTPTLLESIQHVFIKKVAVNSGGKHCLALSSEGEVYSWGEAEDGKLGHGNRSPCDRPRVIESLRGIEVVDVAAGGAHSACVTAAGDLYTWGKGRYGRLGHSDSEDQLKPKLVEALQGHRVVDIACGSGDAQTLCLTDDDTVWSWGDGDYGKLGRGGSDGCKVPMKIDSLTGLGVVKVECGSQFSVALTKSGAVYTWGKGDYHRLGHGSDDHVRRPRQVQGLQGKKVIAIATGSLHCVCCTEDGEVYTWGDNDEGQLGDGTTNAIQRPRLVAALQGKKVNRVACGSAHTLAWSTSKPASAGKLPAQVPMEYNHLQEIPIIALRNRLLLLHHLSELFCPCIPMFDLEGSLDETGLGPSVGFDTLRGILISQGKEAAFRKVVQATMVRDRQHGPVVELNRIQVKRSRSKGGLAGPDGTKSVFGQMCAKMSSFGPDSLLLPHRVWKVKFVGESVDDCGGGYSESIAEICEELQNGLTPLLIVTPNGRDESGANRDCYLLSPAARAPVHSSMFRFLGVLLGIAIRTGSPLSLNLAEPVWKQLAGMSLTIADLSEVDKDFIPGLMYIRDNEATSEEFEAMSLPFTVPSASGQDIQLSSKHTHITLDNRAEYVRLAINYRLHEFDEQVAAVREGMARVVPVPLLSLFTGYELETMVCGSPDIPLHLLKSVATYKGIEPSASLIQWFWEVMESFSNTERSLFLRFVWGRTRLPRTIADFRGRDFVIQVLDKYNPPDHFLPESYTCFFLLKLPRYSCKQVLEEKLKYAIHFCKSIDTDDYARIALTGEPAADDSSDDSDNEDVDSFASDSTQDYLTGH
UniProt P56524: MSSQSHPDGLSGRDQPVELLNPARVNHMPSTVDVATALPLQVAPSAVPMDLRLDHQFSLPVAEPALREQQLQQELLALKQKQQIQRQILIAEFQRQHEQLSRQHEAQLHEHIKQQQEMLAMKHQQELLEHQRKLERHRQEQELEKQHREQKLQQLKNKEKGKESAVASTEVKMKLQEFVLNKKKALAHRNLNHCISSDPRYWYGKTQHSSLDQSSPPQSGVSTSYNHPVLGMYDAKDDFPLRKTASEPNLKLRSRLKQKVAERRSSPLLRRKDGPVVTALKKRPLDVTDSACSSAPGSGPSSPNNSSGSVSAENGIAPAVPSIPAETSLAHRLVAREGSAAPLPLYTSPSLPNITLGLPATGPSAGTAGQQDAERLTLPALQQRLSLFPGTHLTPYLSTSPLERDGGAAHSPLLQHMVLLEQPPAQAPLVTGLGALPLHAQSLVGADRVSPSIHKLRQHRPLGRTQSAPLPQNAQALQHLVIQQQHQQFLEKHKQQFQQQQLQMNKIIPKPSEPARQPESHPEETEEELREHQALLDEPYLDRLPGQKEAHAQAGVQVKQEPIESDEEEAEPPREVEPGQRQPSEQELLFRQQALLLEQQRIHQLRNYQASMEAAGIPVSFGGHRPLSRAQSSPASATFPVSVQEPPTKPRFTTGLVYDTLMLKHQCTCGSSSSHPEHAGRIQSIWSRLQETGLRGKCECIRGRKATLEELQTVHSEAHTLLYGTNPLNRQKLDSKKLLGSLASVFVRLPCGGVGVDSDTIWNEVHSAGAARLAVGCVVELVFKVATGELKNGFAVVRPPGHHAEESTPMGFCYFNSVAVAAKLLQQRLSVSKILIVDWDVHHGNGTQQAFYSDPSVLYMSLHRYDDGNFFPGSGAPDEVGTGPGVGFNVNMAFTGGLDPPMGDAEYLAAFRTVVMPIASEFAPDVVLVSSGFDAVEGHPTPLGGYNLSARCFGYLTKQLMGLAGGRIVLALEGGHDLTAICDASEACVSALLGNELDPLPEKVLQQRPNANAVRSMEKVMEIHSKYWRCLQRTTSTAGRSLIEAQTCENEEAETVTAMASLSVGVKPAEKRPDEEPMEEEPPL
UniProt Q9NQE9: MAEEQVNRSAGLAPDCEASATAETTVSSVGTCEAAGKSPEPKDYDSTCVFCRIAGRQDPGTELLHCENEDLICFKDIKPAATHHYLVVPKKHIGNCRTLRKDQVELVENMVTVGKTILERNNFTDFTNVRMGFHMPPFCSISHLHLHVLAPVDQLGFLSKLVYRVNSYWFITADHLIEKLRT
UniProt Q5T8I9: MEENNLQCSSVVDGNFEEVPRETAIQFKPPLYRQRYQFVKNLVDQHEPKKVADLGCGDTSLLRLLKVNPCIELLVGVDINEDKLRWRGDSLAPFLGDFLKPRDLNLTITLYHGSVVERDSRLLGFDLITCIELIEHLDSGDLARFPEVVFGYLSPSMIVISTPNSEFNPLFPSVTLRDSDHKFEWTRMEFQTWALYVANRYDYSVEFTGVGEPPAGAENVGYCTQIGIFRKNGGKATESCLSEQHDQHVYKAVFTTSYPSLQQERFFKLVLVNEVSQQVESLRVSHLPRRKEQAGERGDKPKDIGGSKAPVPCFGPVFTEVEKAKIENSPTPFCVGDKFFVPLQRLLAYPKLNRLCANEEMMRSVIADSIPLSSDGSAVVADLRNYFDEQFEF

Compound: CC1Cc2ccccc2N1C(=O)C1CCCN(C1)C(=O)CCl (mixture of isomers) [TRIM25 ligand 11 (diastereomer mixture)]
Assay: probe-labelled cysteine peptide fold change vs DMSO (competition) (log2 fold change); higher = less target engagement (more negative = stronger competition)
Conditions: THP-1, incubation time: 4 h
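Also: competitive chemoproteomic profiling in live THP-1 cells with an iodoacetamide desthiobiotin (IA-DTB) probe, comparing probe-labelled peptide intensities in compound-treated cells against DMSO-treated controls.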

Target	probe-labelled cysteine peptide fold change (10 µM)	probe-labelled cysteine peptide fold change (50 µM)
HERC2_O95714_1037_ISSCLDFEQHSR (UniProt O95714)	-0.109	0.189
HERC2_O95714_3016_VYACGEATNGR (UniProt O95714)	0.209	-0.026
HLA-C_P04222_364_GGSCSQAASSNSAQGSDESLIACKA (UniProt P04222)	-0.294	-0.243
HDAC4_P56524_777_LAVGCVVELVFK (UniProt P56524)	0.148	0.213
HK1_P19367_256_MCINTEWGAFGDDGSLEDIRTEFDREIDR (UniProt P19367)	0.415	0.383
HCFC1_P51610_1139_RACAAGTPAVIR (UniProt P51610)	0.00185	-0.15
HEATR3_Q7Z4Q2_57_ECACAGLAR (UniProt Q7Z4Q2)	-0.0844	-0.181
HGS_O14964_166_APDWVDAEECHR (UniProt O14964)	0.0587	0.013
HCFC2_Q9Y5Z7_659_VAAINGCGIGPFSK (UniProt Q9Y5Z7)	-0.0264	-0.199
HINT3_Q9NQE9_66+73_QDPGTELLHCENEDLICFK (UniProt Q9NQE9)	-0.0938	-0.404
HERC2_O95714_3193_GGSEGCNIPQNIER (UniProt O95714)	0.0878	-0.0956
HECTD1_Q9ULT8_487_GHSEVVAILQSPGDWMCPVNK (UniProt Q9ULT8)	-0.1	-0.102
HENMT1_Q5T8I9_56_KVADLGCGDTSLLR (UniProt Q5T8I9)	-0.078	-0.0957
HDAC3_O15379_268_LGCFNLSIR (UniProt O15379)	-0.0735	-0.0229
HIP1R_O75146_906_VVLHTGKYEELIVCSHEIAASTAQLVAASK (UniProt O75146)	0.164	0.189
HDHD2_Q9H0R4_194+206_GTGCEPEEAVMIGDDCRDDVGGAQDVGMLGILVK (UniProt Q9H0R4)	0.128	-0.396

2 records picked at random from the list so far, as already listed:
Target	probe-labelled cysteine peptide fold change (10 µM)	probe-labelled cysteine peptide fold change (50 µM)
HDAC4_P56524_777_LAVGCVVELVFK (UniProt P56524)	0.148	0.213
HIP1R_O75146_906_VVLHTGKYEELIVCSHEIAASTAQLVAASK (UniProt O75146)	0.164	0.189
